No constants are given. Whether binding was seen depends on the method and setting. In cells and extracts the contact can be indirect. Some entries that bind do so weakly or less than the wild type. Where a sequence is shown, tags or fusion partners need not be part of it.

Amino acid sequences for entries named in this document (tags omitted).
UniProt Q7Z434: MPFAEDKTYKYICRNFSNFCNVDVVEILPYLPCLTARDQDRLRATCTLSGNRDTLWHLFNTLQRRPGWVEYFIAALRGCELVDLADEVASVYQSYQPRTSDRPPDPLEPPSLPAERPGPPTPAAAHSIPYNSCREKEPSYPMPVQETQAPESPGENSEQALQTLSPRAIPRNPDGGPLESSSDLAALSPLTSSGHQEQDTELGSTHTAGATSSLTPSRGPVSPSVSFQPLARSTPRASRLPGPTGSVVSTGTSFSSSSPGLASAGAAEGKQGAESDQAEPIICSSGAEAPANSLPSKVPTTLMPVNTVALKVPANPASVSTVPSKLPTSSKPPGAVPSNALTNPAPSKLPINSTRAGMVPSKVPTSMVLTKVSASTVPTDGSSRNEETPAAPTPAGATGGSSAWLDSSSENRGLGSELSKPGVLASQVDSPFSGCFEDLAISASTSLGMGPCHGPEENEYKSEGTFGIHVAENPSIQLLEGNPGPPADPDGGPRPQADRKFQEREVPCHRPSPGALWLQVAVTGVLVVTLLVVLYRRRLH

The target of the experiment is Myc-MAVS (mitochondrial antiviral signaling protein) (UniProt Q7Z434). Kind of experiment: co-IP.

B1: HA-MDA5 (melanoma differentiation–associated protein 5) (protein, UniProt Q9BYX4 1-1025)
chain: MSNGYSTDENFRYLISCFRARVKMYIQVEPVLDYLTFLPAEVKEQIQRTVATSGNMQAVELLLSTLEKGVWHLGWTREFVEALRRTGSPLAARYMNPELTDLPSPSFENAHDEYLQLLNLLQPTLVDKLLVRDVLDKCMEEELLTIEDRNRIAAAENNGNESGVRELLKRIVQKENWFSAFLNVLRQTGNNELVQELTGSDCSESNAEIENLSQVDGPQVEEQLLSTTVQPNLEKEVWGMENNSSESSFADSSVVSESDTSLAEGSVSCLDESLGHNSNMGSDSGTMGSDSDEENVAARASPEPELQLRPYQMEVAQPALEGKNIIICLPTGSGKTRVAVYIAKDHLDKKKKASEPGKVIVLVNKVLLVEQLFRKEFQPFLKKWYRVIGLSGDTQLKISFPEVVKSCDIIISTAQILENSLLNLENGEDAGVQLSDFSLIIIDECHHTNKEAVYNNIMRHYLMQKLKNNRLKKENKPVIPLPQILGLTASPGVGGATKQAKAEEHILKLCANLDAFTIKTVKENLDQLKNQIQEPCKKFAIADATREDPFKEKLLEIMTRIQTYCQMSPMSDFGTQPYEQWAIQMEKKAAKEGNRKERVCAEHLRKYNEALQINDTIRMIDAYTHLETFYNEEKDKKFAVIEDDSDEGGDDEYCDGDEDEDDLKKPLKLDETDRFLMTLFFENNKMLKRLAENPEYENEKLTKLRNTIMEQYTRTEESARGIIFTKTRQSAYALSQWITENEKFAEVGVKAHHLIGAGHSSEFKPMTQNEQKEVISKFRTGKINLLIATTVAEEGLDIKECNIVIRYGLVTNEIAMVQARGRARADESTYVLVAHSGSGVIEHETVNDFREKMMYKAIHCVQNMKPEEYAHKILELQMQSIMEKKMKTKRNIAKHYKNNPSLITFLCKNCSVLACSGEDIHVIEKMHHVNMTPEFKELYIVRENKALQKKCADYQINGEIICKCGQAWGTMMVHKGLDLPCLKIRNFVVVFKNNSTKKQYKKWVELPITFPNLDYSECCLFSDED
For the molecule B1, the binding entry was “binds”.

The record behind these values is PMC9837762.
